Record: PubChem BioAssay AID1259424 (University of Nebraska Medical Center, 2018)
Assay: 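Rank knockdowns across the genome by resemblance to the KSR1 depletion profile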 (primary screen). Cells: human HCT116 colon cancer cells. Knock-down reagent: siRNA pool against human genes, 50 nM. Read-out: 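Log2 levels of six mRNAs (branched-DNA multiplex), adjusted by two reference genes and the non-targeting median, then scored against the average KSR1 knockdown pattern as Pearson r and euclidean distance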. Reading the numbers: mean correlation with KSR1 profile: higher = expression change more like KSR1 knockdown.
The deposit covers about 14,000 reagents; this is a random part of them. 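Higher correlation or smaller distance means closer resemblance to KSR1 loss; control wells, including KSR1 knockdowns, recur on many plates.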 Not all columns of the deposit are shown. Not stated in the record: the time to read-out.

RNF122 → mean correlation with KSR1 profile: 0.318
CACNG5 → mean correlation with KSR1 profile: 0.405
ZNF331 → mean correlation with KSR1 profile: -0.102
TNFRSF1A → mean correlation with KSR1 profile: -0.0289
MIR9-1HG → mean correlation with KSR1 profile: -0.252
RAB33A → mean correlation with KSR1 profile: 0.226
TMX2 → mean correlation with KSR1 profile: -0.168
DTNA → mean correlation with KSR1 profile: 0.0193
NLGN1 → mean correlation with KSR1 profile: -0.437
EPYC → mean correlation with KSR1 profile: -0.531
CNOT10 → mean correlation with KSR1 profile: -0.126
PTPRE → mean correlation with KSR1 profile: 0.596
CLEC4D → mean correlation with KSR1 profile: 0.317
DDAH1 → mean correlation with KSR1 profile: -0.435
CAPN5 → mean correlation with KSR1 profile: 0.108
PMPCA → mean correlation with KSR1 profile: -0.0803
ZKSCAN1 → mean correlation with KSR1 profile: -0.372
MRPS21 → mean correlation with KSR1 profile: -0.255
RPN1 → mean correlation with KSR1 profile: 0.387

Copied from the list:
Value of CAPN5 under “mean correlation with KSR1 profile”: 0.108
Entry of PTPRE in “mean correlation with KSR1 profile”: 0.596
